Reference: patent publication US12091454B2, “Humanized anti-human neurotensin receptor 1 antibodies and their uses” (DEVELOPMENT CENTER FOR BIOTECHNOLOGY, priority 2022, dated 2024)
Some of these results come from one statement about several compounds together.

B1: AKT2 HuHu: humanized anti-NTSR1 antibody, AKT2 HuVH (SEQ ID NO: 16) and AKT2 HuVL (SEQ ID NO: 17) (antibody, V domains shown)
VH: QVQLVQSGAEVKKPGASVKVSCKASGYAFTSSWIHWVRQAPGQGLEWMGQIRPNSGNTYYNEKFKVRVTMTRDTSTSTVYMELSSLRSEDTAVYYCARYHYGFDYWGQGTLVTVSS
VL: DIVMTQTPLSLSVTPGQPASISCRSSQSIVHSNGNTYLEWYLQKPGQSPQLLIYKVSNRFSGVPDRFSGSGSGTDFTLKISRVEAEDVGVYYCFQGAHLPWTFGQGTKVEIK
B2: AKT2 HuHd: humanized anti-NTSR1 antibody, AKT2 HuVH (SEQ ID NO: 16) and AKT2 HdVL (SEQ ID NO: 15) (antibody, V domains shown)
VH: B1 VH
VL: DIQMTQSPSSLSASVGDRVTITCRSSQSIVHSNGNTYLEWYQQKPGKAPKLLIYKVSNRFSGVPSRFSGSGSGTDFTLTISSLQPEDFATYYCFQGAHLPWTFGQGTKVEIK

Assay: In vivo pharmacokinetic analysis (MSD ECL total antibody assay)
Settings: BALB/c mice, 5 mg/kg via the tail vein
Source text: This Example used Meso Scale Discovery (MSD) Electrochemiluminescent (ECL) method to conduct the PK analysis of the anti-NTSR1 antibodies αNTSR1 (AKT2), αNTSR1 (AKT2 Hu/Hu) and αNTSR1 (AKT2 Hu/Hd) in BALB/c mice samples. The MSD assay can measure both conjugated and unconjugated antibodies. As illustrated in this example, for total antibody assay (including conjugated and unconjugated antibodies), the plate is coated with goat anti-human IgG, which can capture all humanized antibodies (conjugated and unconjugated).
The mice were administered at a dose level of 5 mg/kg via the tail vein. Blood samples were then obtained at different time points for determining the concentrations of αNTSR1 (AKT2), αNTSR1 (AKT2 Hu/Hu) and αNTSR1 (AKT2 Hu/Hd) in mice by MESO QuickPlex SQ 120 method. The PK parameters of αNTSR1 (AKT2), αNTSR1 (AKT2 Hu/Hu) and αNTSR1 (AKT2 Hu/Hd) were analyzed by noncompartmental analysis using PHOENIX™ for WinNonlin Program, version 6.3.

Row | Molecule | in vivo half live (listed as αNTSR1 (AKT2 Hu/Hu)) | in vivo half live (listed as αNTSR1 (AKT2 Hu/Hd))
1 | B1 | 156 to 182 h | 
2 | B2 |  | 156 to 182 h
